Results are given in words; binding and its absence hold for the method and conditions named. In cells and extracts the contact can be indirect. Some entries that bind do so weakly or less than the wild type.
Biological target: T1, Fermitin family member 1 (FERMT1) (human (endogenous in HK1 and CNE2)) (UniProt Q9BQL6)
T1 sequence: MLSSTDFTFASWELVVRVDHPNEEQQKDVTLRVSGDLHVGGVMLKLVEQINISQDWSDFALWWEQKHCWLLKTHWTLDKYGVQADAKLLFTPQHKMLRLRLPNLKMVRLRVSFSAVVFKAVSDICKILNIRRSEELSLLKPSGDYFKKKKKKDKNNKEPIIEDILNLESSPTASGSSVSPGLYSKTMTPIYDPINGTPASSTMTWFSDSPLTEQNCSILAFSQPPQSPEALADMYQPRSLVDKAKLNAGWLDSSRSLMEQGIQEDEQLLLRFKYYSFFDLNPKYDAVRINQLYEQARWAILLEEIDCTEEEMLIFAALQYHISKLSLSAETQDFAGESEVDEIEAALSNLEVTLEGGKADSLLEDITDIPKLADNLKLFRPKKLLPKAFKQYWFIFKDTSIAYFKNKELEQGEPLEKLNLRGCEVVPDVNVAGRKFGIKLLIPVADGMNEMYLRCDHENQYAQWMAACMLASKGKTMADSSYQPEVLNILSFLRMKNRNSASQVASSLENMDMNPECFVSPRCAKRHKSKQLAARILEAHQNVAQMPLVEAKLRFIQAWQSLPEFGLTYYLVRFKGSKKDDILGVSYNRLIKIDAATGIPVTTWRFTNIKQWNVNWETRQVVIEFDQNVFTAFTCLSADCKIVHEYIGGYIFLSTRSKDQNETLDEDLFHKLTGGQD
Experiment: co-IP; lysates of NPC cells (HK1 and CNE2) in cold co-immunoprecipitation buffer; immunoprecipitation with anti-FERMT1 or anti-NLRP3 antibody on protein A/G magnetic beads; bound protein detected by western blotting

Amino acid sequences for entries named in this document (tags omitted).
UniProt Q96P20: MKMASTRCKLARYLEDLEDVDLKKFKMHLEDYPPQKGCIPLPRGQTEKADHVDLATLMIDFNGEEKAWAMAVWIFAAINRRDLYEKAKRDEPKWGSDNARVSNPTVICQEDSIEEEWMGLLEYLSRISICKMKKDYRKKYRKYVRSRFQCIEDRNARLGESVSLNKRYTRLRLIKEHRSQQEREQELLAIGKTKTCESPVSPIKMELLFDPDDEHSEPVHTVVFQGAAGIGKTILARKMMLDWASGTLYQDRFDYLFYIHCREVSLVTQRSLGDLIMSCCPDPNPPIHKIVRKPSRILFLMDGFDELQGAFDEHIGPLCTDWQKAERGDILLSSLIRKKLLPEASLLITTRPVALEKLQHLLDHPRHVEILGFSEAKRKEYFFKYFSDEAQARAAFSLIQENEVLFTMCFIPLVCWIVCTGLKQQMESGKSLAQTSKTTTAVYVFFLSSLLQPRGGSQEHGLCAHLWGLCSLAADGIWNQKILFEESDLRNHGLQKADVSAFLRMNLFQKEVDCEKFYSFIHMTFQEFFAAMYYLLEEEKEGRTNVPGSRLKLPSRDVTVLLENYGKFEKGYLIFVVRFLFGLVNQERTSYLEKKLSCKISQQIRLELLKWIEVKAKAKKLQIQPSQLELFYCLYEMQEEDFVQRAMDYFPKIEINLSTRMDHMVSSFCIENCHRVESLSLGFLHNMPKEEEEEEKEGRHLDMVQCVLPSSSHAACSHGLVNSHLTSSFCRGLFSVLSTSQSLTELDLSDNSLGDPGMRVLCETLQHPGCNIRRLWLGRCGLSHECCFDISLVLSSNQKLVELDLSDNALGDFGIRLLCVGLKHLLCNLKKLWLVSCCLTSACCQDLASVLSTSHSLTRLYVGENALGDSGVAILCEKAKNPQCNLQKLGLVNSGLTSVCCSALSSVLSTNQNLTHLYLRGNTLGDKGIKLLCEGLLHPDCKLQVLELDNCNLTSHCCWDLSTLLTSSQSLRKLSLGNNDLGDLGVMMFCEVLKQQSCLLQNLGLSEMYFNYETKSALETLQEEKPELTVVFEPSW

## Nod-like receptor family protein 3 (NLRP3) (from UniProt Q96P20 1-1036)
  binding: binds

Source: paper PMC8832859
